The text below walks through data of PMC10719344.

By UniProt entry, the sequences of proteins in these tests, tags left out.
UniProt Q92841: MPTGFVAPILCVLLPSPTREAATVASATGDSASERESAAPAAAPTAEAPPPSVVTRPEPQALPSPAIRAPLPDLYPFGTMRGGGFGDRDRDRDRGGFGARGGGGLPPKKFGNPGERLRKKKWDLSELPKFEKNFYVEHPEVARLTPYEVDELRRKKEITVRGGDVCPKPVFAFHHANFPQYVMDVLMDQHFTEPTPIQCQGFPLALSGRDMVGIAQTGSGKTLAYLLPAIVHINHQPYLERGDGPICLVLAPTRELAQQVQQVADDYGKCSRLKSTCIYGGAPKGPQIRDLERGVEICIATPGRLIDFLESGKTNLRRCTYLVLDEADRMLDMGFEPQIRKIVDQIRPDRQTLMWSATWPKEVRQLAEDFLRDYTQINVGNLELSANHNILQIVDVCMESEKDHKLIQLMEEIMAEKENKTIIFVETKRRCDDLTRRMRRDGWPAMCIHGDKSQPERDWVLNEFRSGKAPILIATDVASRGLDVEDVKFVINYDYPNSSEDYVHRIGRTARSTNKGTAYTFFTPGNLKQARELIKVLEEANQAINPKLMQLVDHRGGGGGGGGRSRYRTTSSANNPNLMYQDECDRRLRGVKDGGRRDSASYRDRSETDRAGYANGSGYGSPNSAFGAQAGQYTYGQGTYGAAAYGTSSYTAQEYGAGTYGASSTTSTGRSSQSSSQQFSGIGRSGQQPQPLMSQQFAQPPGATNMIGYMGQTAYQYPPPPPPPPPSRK
UniProt P84022: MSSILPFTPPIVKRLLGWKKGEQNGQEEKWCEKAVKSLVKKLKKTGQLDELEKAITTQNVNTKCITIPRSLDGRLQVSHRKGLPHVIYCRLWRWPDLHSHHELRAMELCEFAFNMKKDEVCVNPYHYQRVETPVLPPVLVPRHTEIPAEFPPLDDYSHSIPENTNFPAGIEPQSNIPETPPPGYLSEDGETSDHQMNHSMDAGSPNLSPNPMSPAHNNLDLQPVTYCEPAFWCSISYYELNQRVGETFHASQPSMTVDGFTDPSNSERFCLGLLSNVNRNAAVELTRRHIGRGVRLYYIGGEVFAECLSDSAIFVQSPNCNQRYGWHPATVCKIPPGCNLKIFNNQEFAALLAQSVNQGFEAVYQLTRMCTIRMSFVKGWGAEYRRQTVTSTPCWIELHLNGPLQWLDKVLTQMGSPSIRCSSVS

This experiment addresses HA-DDX17 (UniProt Q92841). Description: co-IP; IP with anti-HA antibody (HA-DDX17) from lysates of HEK293T cells co-transfected with HA-DDX17 and FLAG-SMAD3 or FLAG-SMAD3 mutants; 5 uM MG-132 for 12 h before harvest; with or without SB431542; blot with anti-FLAG.

No constants are given. Whether binding was seen depends on the method and setting. In cells and extracts the contact can be indirect. Some binding calls cover weakened binding; strength is not graded here.

In the case of FLAG-SMAD3 (from UniProt P84022 1-425), the binding entry is given as “binds”.
